The target of the data set is von Willebrand factor A1 domain (Homo sapiens) (UniProt P04275). Kind of data set: SPR. The conditions noted are these: 37 C; likely pM (protein 0.078-5 nM); p148: koff 0.162 1/s; purified recombinant protein; protein details: U-Protein Express V003; label: biotin (SPR); single-stranded DNA.

Consider one sequence from US20180305695.

Construct, isoform or probe ends are uncertain for at least one entry.

For the sequence “GGCGTGCAGTGCCTTCGGCCGTGCGGTGCCTCCGTCACGCC [ARC1172]”, the Kd was 3.26e+08 pM.
